This data set can be described thus: MicroPET imaging and biodistribution in U87MG xenografts. Conditions: female, athymic nude, mouse, in vivo; for tissue uptake at 1 h: 1 h p.i.; for tissue uptake at 4 h: 4 h p.i.; for tissue uptake at 24 h: 24 h p.i. An excerpt: Female athymic nude mice (Harlan Laboratories) were housed in an animal facility under pathogen-free conditions. Tumor model was developed in 5 to 6 weeks old female athymic nude mice by injection of 5×10^6 cells into their right shoulders. The mice underwent small-animal PET studies when the tumor volume reached 300 mm^3 (14-20 days after inoculation), and received ^90Y radionuclide therapy when the tumor volume reached 150 mm^3 (10-14 days after inoculation).
Blood, muscle, bone, liver, kidneys, spleen, intestine, heart and tumor were collected and wet-weighed. […] Radioactivity was measured in a γ-counter. The results were expressed % ID/g.

Setting [1] is: tumor uptake with blocking, co-injection of excess c(RGDfk) monomer.
Setting [2] is: tumor uptake, U87MG xenografts, PET.

The structures appear in SMILES notation.

As for `Cc1cc(-c2ccc(NC(=O)[C@@H](CCCCNC(=O)CCN3C(=O)CC(SCC(=O)NCCCC[C@H]4NC(=O)[C@H](Cc5ccccc5)NC(=O)[C@H](CC(=O)O)NC(=O)CNC(=O)[C@H](CCCNC(=N)N)NC4=O)C3=O)NC(=O)CN3CCN(CC(=O)O)CCN(CC(=O)O)CC3)c(C)c2)ccc1/N=N/c1ccc2c(S(=O)(=O)O)cc(S(=O)(=O)O)c(N)c2c1O` (some centres unmarked) [64Cu-NMEB-RGD, metal not drawn], the tissue uptake at 1 h is 5.77 ± 0.08 %ID/g under setting [1], 9.87 ± 1.4 %ID/g under setting [2] and 9.58 ± 0.84 %ID/g (uptake in the blood). Further, the tissue uptake at 4 h runs as follows: under setting [1], 11.1 ± 0.05 %ID/g; under setting [2], 14.1 ± 1.62 %ID/g; (uptake in the blood) 5.73 ± 0.67 %ID/g. In addition, the tissue uptake at 24 h is, setting by setting: under setting [2], 16.6 ± 1.99 %ID/g; (uptake in the blood) 2.46 ± 0.25 %ID/g.

Usually tissue uptake stands for the percentage of the injected dose found per gram of tissue. Lower therefore signals low uptake.

The record behind these values is patent US10696631B2 (priority 2016, dated 2020).
